Source: paper PMC12956874
These are yes or no findings as the source states them, for the method shown. Some results given as binding are weak or reduced against the parent protein; the word gives no strength. Where a sequence is shown, tags or fusion partners need not be part of it. Blank lines part the entries; values can stand above or below the binder they belong to.

Key:
[1] = biological target: T1, GAL4 BD-ScSgt2 1-346 (S. cerevisiae) (UniProt Q12118); assay: two-hybrid; growth-based assay in S. cerevisiae PJ69-4A; GAL4-AD and GAL4-BD fusions; -Leu -Trp -His -Ade (7 days) and -Leu -Trp -His + 5 mM 3-AT (10 days)
T1 sequence: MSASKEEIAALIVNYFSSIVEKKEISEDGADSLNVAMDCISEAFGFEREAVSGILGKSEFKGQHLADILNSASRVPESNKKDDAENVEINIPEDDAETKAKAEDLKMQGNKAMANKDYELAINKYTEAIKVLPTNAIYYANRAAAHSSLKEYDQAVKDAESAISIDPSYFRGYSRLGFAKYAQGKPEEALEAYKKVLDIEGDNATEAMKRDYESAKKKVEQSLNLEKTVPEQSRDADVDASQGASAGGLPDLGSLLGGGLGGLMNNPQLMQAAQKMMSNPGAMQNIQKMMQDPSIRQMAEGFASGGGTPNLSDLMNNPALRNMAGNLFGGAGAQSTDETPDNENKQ

[2] = biological target: T2, GAL4 BD-ScPCS60 1-543 (S. cerevisiae) (UniProt P38137); assay: two-hybrid; colony-lift filter assay in S. cerevisiae PCY2; GAL4-AD and GAL4-BD fusions
T2 sequence: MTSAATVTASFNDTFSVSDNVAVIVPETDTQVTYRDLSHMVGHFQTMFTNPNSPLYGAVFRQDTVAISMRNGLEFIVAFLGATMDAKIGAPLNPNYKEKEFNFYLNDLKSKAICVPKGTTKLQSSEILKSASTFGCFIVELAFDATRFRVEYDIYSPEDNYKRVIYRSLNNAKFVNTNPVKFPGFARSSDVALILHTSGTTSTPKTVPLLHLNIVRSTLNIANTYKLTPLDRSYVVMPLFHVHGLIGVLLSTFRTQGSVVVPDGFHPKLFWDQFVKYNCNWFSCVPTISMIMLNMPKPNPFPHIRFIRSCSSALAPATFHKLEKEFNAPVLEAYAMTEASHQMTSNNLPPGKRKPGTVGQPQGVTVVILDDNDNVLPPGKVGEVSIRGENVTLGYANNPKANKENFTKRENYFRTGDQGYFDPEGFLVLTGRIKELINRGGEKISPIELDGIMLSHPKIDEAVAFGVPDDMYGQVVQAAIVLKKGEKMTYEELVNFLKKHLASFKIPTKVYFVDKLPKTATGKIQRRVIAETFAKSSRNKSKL

[3] = biological target: T2, GAL4 BD-ScPCS60 1-543 (S. cerevisiae); assay: two-hybrid; growth-based assay in S. cerevisiae PJ69-4A; GAL4-AD and GAL4-BD fusions; -Leu -Trp -His -Ade (7 days) and -Leu -Trp -His + 5 mM 3-AT (10 days)
[4] = biological target: T3, ScPEX19, yeast two-hybrid fusion (yeast) (UniProt Q07418); assay: two-hybrid; yeast two-hybrid shown in SI Appendix figures (S4, S8 C and D, S12C, S13B); read-out not told in the text shown
T3 sequence: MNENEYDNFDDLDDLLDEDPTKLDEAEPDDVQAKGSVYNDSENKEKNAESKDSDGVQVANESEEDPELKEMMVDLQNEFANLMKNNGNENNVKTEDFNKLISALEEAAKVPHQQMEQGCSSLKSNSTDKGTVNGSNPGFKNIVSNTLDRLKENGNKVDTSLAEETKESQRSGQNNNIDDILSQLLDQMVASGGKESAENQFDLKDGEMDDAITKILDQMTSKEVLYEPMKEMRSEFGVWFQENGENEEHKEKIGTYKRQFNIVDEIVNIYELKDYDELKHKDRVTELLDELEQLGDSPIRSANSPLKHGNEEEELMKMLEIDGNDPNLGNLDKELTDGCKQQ

binding [1]: binds weakly
B1: GAL4 AD-ScPEX19 1-342 (full-length) (protein, UniProt Q07418 1-342)
chain: T3 sequence

binding [2]: binds | binding [3]: binds
B2: GAL4 AD-ScPEX5 1-612 (protein, UniProt P35056 1-612)
chain: MDVGSCSVGNNPLAQLHKHTQQNKSLQFNQKNNGRLNESPLQGTNKPGISEAFISNVNAISQENMANMQRFINGEPLIDDKRRMEIGPSSGRLPPFSNVHSLQTSANPTQIKGVNDISHWSQEFQGSNSIQNRNADTGNSEKAWQRGSTTASSRFQYPNTMMNNYAYASMNSLSGSRLQSPAFMNQQQSGRSKEGVNEQEQQPWTDQFEKLEKEVSENLDINDEIEKEENVSEVEQNKPETVEKEEGVYGDQYQSDFQEVWDSIHKDAEEVLPSELVNDDLNLGEDYLKYLGGRVNGNIEYAFQSNNEYFNNPNAYKIGCLLMENGAKLSEAALAFEAAVKEKPDHVDAWLRLGLVQTQNEKELNGISALEECLKLDPKNLEAMKTLAISYINEGYDMSAFTMLDKWAETKYPEIWSRIKQQDDKFQKEKGFTHIDMNAHITKQFLQLANNLSTIDPEIQLCLGLLFYTKDDFDKTIDCFESALRVNPNDELMWNRLGASLANSNRSEEAIQAYHRALQLKPSFVRARYNLAVSSMNIGCFKEAAGYLLSVLSMHEVNTNNKKGDVGSLLNTYNDTVIETLKRVFIAMNRDDLLQEVKPGMDLKRFKGEFSF

binding [4]: binds weakly
B3: ScSgt2, yeast two-hybrid fusion (protein, UniProt Q12118 1-346)
chain: T1 sequence
